# In PubChem BioAssay AID540276 (National Center for Advancing Translational Sciences (NCATS), 2011):
# In all, about 300,000 compounds went through this assay and about 5,400 (1.8%) were called active. Inconclusive means that the source gave no clear call. Such entries were picked first, then a sample of the others. The call rests on the fitted dose curve; tested in HEK293 cells. Where the call is inconclusive, the potency comes from a doubtful curve fit.
# Experiment: qHTS for inhibitors of binding or entry into cells for Marburg Virus
# Settings: Marburg virus pseudotyped entry inhibition, cell reporter; activity change, negative = inhibition: at 37.8 µM (top of the series) unless noted
# On the % scale 0 is the no-effect control and ±100 the full control effect; potency means the concentration at half of the fitted maximal effect.
Compound,Potency,"activity change, negative = inhibition"
Cc1ccnc(NCc2ccc(Cl)cc2)c1,"inconclusive: 7.08 µM [inhibitor, partial curve, poor fit]",
CCN(CC)c1ccc(NC(=O)Cn2cc3c(n2)CCCC3)c(C)c1,inactive,
CC(NC(=O)c1cc(-c2cccs2)on1)c1ccccc1 (stereo not given),inactive,
CC#CC[N+](C)(C)CCCCCCCC,"inconclusive: 12.6 µM [inhibitor, partial curve, poor fit]",
O=C(COc1cccc2cccnc12)N/N=C/c1cccn1-c1ccc(F)cc1,"inconclusive: 22.4 µM [inhibitor, single point]",
COc1ccccc1CN1CCCC(N2CCN(c3ccc(F)cc3)CC2)C1 (stereo not given),"inconclusive: 35.5 µM [inhibitor, single point]",
COc1cc(CNc2ccccc2SC)ccc1O,inactive,
COc1cccc(CNC(=O)c2cc3cc(C)ccc3n2C)c1,"inconclusive: 1.12 µM [inhibitor, full curve, poor fit]",
COc1ccc(C2C(=O)c3ccccc3C2=O)cc1OC,"inconclusive: 6.31 µM [activator, single point]",
COc1ccc(C)cc1NC(=O)C1CCN(S(=O)(=O)Cc2ccccc2)CC1,inactive,
Cc1ccc(O)c(NC(=O)C2=CC(c3cccs3)=NS(=O)(=O)N2C)c1,inactive,
Cc1[nH]cnc1C(=O)N/N=C/c1c(Cl)cccc1Cl,"inconclusive: 35.5 µM [inhibitor, single point]",
COn1c(-n2nc(C)cc2C)nc2ccccc2c1=O,inactive,
COc1cc(N)c(Cl)cc1C(=O)OCCN1CCCCC1,inactive,
O=C(CC1SCCNC1=O)Nc1cccc(Cl)c1 (stereo not given),"inconclusive: 16.4 µM [activator, partial curve, poor fit]",
CC(C)N(Cc1nccn1C)C(=O)c1cc(COc2ccc(F)cc2Cl)on1,inactive,
COc1ccc(-c2ccc(C#N)c(SCC(=O)NCc3ccco3)n2)cc1OC,"inconclusive: 6.31 µM [inhibitor, partial curve, poor fit]",
CCC(C(=O)NCc1ccco1)N(C(=O)CNS(=O)(=O)c1ccc(F)cc1)c1ccccc1F (stereo not given),inactive,
O=C(NC12CC3CC(CC(C3)C1)C2)c1cc([N+](=O)[O-])ccc1N1CCOCC1,"inconclusive: 32.6 µM [inhibitor, single point]",
CCCN1C(=O)/C(=C\C=C2/C=CN(CC)c3ccccc32)SC1=S,"inconclusive: 0.282 µM [inhibitor, full curve, poor fit]",
CCCn1c2ccccc2c2cn[nH]c(=O)c21,"inconclusive: 3.16 µM [activator, single point]",
COc1nc(N/N=C/c2ccc(-c3ccccc3[N+](=O)[O-])o2)nc(N2CCOCC2)n1,"inconclusive: 11.2 µM [inhibitor, partial curve, poor fit]",
Cc1nc2c(C)cccc2cc1C(=O)N/N=C/c1ccc(O)cc1,"inconclusive: 35.5 µM [inhibitor, single point]",

Compound,Potency,"activity change, negative = inhibition"
COc1ccc2c(c1OC)C(=O)N(c1ccccn1)C2,"inconclusive: 12.6 µM [inhibitor, single point]",
CCn1cc(C(=O)OCc2ccccc2)c(=O)c2ccc(C)nc21,inactive,
COc1ccc(-c2nn(C)c3sc(C(=O)Nc4cc(OC)c(OC)c(OC)c4)cc23)cc1OC,"inconclusive: 17.8 µM [inhibitor, single point]",
COc1cc2c(cc1O)CCC1C2CC[C@]2(C)[C@@H](O)CC[C@@H]12 (stereo not given in full),"inconclusive: 0.562 µM [inhibitor, full curve, poor fit]",
COc1ccc(CCC(C)N2CCC(CO)(Cc3ccccc3)CC2)cc1 (stereo not given),"inconclusive: 35.5 µM [inhibitor, partial curve, poor fit]",
COCCOC(=O)C1=C(C)NC(=O)NC1c1ccco1 (stereo not given),"inconclusive: 1 µM [inhibitor, partial curve, poor fit]",
O=C(NC(=S)Nc1ccc(N2CCCC2)cc1)c1ccccc1[N+](=O)[O-],inactive,
Cc1ccc(NS(=O)(=O)c2ccc(C3CCCCC3)cc2)cc1,"inconclusive: 20 µM [inhibitor, single point]",
COc1nc(NC2OC(CO)C(O)C(O)C2O)c(N)c(=O)[nH]1 (stereo not given),inactive,
CC(=O)N1CCN(c2c(F)c(F)c(C(F)(F)F)c(F)c2F)CC1,"inconclusive: 0.316 µM [inhibitor, full curve, poor fit]",
COc1cc(C2C(C(=O)c3ccc(C)o3)=C(O)C(=O)N2CCN2CCOCC2)ccc1OCCC(C)C (stereo not given),,inconclusive: 3.47% [activator]
CCCCC(CC)CNC(=O)c1ccc(Cn2c(=O)[nH]c3cc(OC)c(OC)cc3c2=O)cc1 (stereo not given),inactive,
COc1ccccc1-c1cc(C(=O)NC(C)C)no1,"inconclusive: 3.26 µM [activator, single point]",
O=C(NC1CC1)c1sc2ccccc2c1Cl,"inconclusive: 12.6 µM [activator, partial curve, poor fit]",
Cc1nc(N2CCCCC2)sc1C(=O)c1ccc(SCCO)c([N+](=O)[O-])c1,"inconclusive: 12.6 µM [inhibitor, single point]",
CC(=O)N1CCN(c2ccc(S(C)(=O)=O)cc2[N+](=O)[O-])CC1,inactive,
O=C(Cn1c(=O)c(=O)n(Cc2ccccc2)c2ccc(Cl)cc21)Nc1cccc(F)c1,active: 0.794 µM,
CN(C)/C=N/c1c(C#N)cnn1-c1ccccc1,inactive,
COC(=O)c1cc(C(=O)OCC(=O)Nc2ccccc2OC(F)F)cc([N+](=O)[O-])c1,"inconclusive: 35.5 µM [activator, single point]",
COc1ccc(NS(=O)(=O)c2ccc(N3CCCC3)c(N)c2)cc1,"inconclusive: 7.94 µM [inhibitor, partial curve, poor fit]",
CCCN(CCC)C(=O)CC(c1ccccc1)c1cc(Br)ccc1O (stereo not given),"inconclusive: 18.3 µM [inhibitor, partial curve, poor fit]",
CCOC(=O)CN(Cc1ccccc1)C(C(=O)NC1CCCCC1)c1ccccc1 (stereo not given),"inconclusive: 35.5 µM [inhibitor, single point]",

# Part of the list above, with tabs:
Compound	Potency	activity change, negative = inhibition
CC(NC(=O)c1cc(-c2cccs2)on1)c1ccccc1 (stereo not given)	inactive	
COc1ccc(C)cc1NC(=O)C1CCN(S(=O)(=O)Cc2ccccc2)CC1	inactive	
COc1cc(N)c(Cl)cc1C(=O)OCCN1CCCCC1	inactive	
CC(=O)N1CCN(c2c(F)c(F)c(C(F)(F)F)c(F)c2F)CC1	inconclusive: 0.316 µM [inhibitor, full curve, poor fit]	
